Data taken from ChEMBL document CHEMBL3988442, “University of Dundee, Small-Polar-MMV Screening Library” (2021).

Protein sequences, listed by entry. Tags and fused reporters are not part of them.
UniProt P9WFT3, whole entry: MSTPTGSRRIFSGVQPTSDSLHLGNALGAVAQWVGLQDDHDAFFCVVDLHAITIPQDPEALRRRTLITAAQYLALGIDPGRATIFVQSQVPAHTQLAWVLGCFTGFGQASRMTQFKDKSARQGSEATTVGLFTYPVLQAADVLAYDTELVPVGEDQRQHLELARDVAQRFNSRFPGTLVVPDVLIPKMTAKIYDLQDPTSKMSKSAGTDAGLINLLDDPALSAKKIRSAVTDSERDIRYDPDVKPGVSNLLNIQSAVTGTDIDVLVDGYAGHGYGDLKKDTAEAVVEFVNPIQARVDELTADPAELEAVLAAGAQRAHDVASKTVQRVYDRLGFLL
UniProt P9WPC5, whole entry: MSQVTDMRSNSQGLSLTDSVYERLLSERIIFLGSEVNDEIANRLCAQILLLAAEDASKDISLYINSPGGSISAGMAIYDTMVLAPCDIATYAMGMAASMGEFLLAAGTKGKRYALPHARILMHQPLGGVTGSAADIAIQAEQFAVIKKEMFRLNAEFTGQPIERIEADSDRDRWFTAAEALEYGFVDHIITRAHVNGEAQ
UniProt P9WPC3, whole entry partner: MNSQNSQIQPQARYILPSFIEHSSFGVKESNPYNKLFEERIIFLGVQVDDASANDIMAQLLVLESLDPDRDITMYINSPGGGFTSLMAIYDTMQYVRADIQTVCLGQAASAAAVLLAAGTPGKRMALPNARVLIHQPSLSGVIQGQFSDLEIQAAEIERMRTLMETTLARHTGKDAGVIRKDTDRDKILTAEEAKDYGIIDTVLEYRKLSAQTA
UniProt P9WNZ1, whole entry: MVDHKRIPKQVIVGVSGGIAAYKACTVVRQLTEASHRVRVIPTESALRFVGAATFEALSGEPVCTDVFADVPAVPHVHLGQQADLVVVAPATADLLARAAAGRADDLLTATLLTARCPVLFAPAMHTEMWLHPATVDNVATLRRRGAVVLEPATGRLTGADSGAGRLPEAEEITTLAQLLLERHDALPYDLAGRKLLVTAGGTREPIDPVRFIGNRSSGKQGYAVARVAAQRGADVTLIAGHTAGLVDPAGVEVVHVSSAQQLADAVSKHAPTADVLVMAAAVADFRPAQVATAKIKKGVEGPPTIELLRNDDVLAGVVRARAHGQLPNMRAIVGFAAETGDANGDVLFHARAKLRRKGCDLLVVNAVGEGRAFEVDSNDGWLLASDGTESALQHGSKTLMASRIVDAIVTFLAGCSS
UniProt I6X8D2, whole entry: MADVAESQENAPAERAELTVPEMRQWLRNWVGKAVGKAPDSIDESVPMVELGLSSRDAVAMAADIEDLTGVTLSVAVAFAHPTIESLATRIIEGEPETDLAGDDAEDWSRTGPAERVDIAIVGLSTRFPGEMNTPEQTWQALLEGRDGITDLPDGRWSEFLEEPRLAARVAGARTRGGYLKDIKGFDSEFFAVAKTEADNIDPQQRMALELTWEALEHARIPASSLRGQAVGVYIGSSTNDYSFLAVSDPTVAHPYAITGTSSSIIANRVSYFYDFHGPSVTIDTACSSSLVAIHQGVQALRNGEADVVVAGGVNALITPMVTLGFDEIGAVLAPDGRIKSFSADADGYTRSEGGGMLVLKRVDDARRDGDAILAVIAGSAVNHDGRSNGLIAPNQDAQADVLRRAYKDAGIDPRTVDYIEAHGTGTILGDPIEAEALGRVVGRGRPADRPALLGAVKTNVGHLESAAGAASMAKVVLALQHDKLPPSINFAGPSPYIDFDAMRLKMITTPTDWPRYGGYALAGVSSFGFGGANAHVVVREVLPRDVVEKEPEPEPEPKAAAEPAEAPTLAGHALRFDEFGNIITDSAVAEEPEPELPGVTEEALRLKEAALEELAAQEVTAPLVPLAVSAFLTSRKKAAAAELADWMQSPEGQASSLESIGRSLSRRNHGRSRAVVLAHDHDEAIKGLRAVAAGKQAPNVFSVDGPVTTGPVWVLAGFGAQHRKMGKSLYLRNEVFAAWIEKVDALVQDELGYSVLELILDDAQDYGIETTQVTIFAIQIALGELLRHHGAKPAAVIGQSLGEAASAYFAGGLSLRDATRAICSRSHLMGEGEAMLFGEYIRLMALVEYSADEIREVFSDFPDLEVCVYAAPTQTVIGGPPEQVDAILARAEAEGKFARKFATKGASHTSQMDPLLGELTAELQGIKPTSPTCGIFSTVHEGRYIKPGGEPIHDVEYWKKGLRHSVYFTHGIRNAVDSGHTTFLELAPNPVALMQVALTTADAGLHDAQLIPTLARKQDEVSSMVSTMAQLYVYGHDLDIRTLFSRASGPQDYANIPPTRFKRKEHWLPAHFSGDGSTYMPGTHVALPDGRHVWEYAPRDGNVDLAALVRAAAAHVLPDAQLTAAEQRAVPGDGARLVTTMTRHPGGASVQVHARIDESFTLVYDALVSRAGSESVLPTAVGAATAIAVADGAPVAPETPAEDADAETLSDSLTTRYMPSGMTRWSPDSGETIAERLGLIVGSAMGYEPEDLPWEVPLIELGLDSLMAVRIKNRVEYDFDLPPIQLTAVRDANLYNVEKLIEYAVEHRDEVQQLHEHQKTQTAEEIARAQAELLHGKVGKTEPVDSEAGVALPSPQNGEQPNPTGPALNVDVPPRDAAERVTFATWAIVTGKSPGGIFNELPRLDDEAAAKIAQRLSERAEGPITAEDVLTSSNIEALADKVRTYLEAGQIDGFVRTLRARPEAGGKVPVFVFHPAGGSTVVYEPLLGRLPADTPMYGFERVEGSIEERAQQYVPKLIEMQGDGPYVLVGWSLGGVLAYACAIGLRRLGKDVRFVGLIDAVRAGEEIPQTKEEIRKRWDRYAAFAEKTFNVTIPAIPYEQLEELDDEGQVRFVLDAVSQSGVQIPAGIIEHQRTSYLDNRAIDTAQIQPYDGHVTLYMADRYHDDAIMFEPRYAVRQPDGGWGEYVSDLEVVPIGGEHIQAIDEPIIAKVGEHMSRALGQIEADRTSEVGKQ

MtTrpRS: 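Enzyme assay of tryptophanyl-tRNA synthetase; the read-out is not stated. Target: Tryptophan-tRNA ligase, Mycobacterium tuberculosis (UniProt P9WFT3). Tested at 10 µM. Higher most likely means stronger inhibition; the record gives no direction and few retests gave an IC50. Of about 65,000 compounds tested this way, about 64 (0.098%) reached 50% or more in at least one test.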
Toxoplasma: 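Assay of Toxoplasma gondii numbers, read through their beta-galactosidase reporter with a colour substrate. Concentration: 10 µM. Higher reads as fewer parasites (inferred from which compounds were picked for retests). Of about 67,000 compounds tested this way, about 260 (0.38%) reached 50% or more in at least one test.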
ClpP1P2: 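ClpP1P2, Mycobacterium tuberculosis (UniProt P9WPC5 and UniProt P9WPC3). Protease assay of ClpP1P2, read by the AMC dye that it sets free. Concentration: 50 µM. Higher reads as stronger inhibition, judged from the few compounds that gave an IC50. Most other retested compounds had strongly negative values. About 69,000 compounds were tested under these conditions; 0.015% (about 10) showed 50% or more at least once.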
CoaBC: 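Coenzyme A biosynthesis protein CoaBC, Mycobacterium tuberculosis (UniProt P9WNZ1). Enzyme assay of CoaBC with a phosphate dye (Biomol Green) read at 650 nm. Tested at 30 µM. Direction is inferred from only a few compounds that gave an IC50; most scored high, so higher reads as stronger inhibition. Most strong results did not repeat in a second test. Of about 67,000 compounds tested this way, about 40 (0.06%) reached 50% or more in at least one test.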
Pks13 thioesterase: 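Enzyme assay of the thioesterase domain of polyketide synthase 13; the read-out is not stated. Target: Polyketide synthase Pks13, Mycobacterium tuberculosis (UniProt I6X8D2). Concentration: 30 µM. Higher reads as stronger inhibition (inferred from which compounds were picked for retests). Of about 67,000 compounds tested this way, about 300 (0.46%) reached 50% or more in at least one test.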

Results are given as percent effect.
The controls that fix the scale are not given in the record; negative values are as filed.
The compounds are a random part of those screened.
A dash means the value is not listed here; it may have been measured.

| # | Compound | MtTrpRS | Toxoplasma | ClpP1P2 | CoaBC | Pks13 thioesterase |
|---|---|---|---|---|---|---|
| 1 | `COc1ccc2c(ccn2CCC(=O)/N=c2\[nH]nc(C3CCCO3)s2)c1` (centres unmarked) | -0.6431 | - | 6.419 | 2.552 | 5.133 |
| 2 | `Cn1nccc1CCC(=O)N1CCOC(c2cnccn2)C1` (centres unmarked) | -5.507 | -7.864 | 5.182 | 9.002 | 4.275 |
| 3 | `O=C(NCCC1CCN(CC(F)(F)F)CC1)C1CCOC1` (centres unmarked) | -1.511 | 5.444 | -4.141 | -0.7009 | -26.27 |
| 4 | `Cl.O[C@@H]1CN(Cc2ccc(F)c(F)c2)CC[C@H]1NCc1ccccn1` | - | 18.01 | - | - | - |
| 5 | `CC(C)c1nc2c(n1C)CCN(CCCc1nc3ccccc3o1)C2` | -8.772 | -2.516 | 14.89 | - | -0.08654 |
| 6 | `O=S(=O)(c1cccs1)N1CC[C@H]2[C@H]1CCN2c1ncccn1` | 2.021 | - | -6.383 | 7.125 | -29.81 |
| 7 | `COCCc1noc(CNC(C)(CO)C2CCCCC2)n1` (centres unmarked) | 2.496 | 19.83 | -6.592 | 7.769 | 2.204 |
| 8 | `O=C(NCc1cccnc1)N1CCc2ncnc(NC3CC3)c2CC1` | - | - | -0.888 | 3.704 | -2.26 |
| 9 | `COc1cc(N2C[C@@H](C)[C@](O)(C3CC3)C2)ncn1` | 0.7874 | 10.99 | -6.451 | 3.836 | -0.7257 |
| 10 | `CN(C(=O)Cn1nc(-c2ccc(Br)cc2)ccc1=O)C1CCS(=O)(=O)C1` (centres unmarked) | 3.291 | -9.63 | -3.421 | 0.5051 | -8.352 |
| 11 | `Cc1cccc(CCC(=O)N2CCCC(c3cc(C(N)=O)[nH]n3)C2)c1` (centres unmarked) | 4.147 | 3.274 | -3.164 | 0.5931 | - |
| 12 | `O=C(NCc1cnc2n1CCN(CC1CC1)C2)C1CC1.O=C(O)C(F)(F)F` | - | 6.09 | - | - | - |
| 13 | `CN1Cc2nnc(C3CCOCC3)n2C(Cc2c[nH]cn2)C1` (centres unmarked) | 2.981 | 7.769 | -6.057 | 5.623 | -29.25 |
| 14 | `O=C(NS(=O)(=O)c1ccc2c(c1)OCCO2)c1ccc(Br)cc1F` | -0.4873 | 6.58 | 4.623 | -0.7833 | -4.109 |
| 15 | `CC(C)CN1CC[C@@H]2[C@H](CC1)N(S(C)(=O)=O)CCS2(=O)=O` | -5.141 | - | 5.932 | 4.941 | -18.7 |
| 16 | `NC(=O)C1CCN(CC(=O)N(Cc2ccccc2)Cc2nccs2)CC1` | -9.71 | 4.652 | -14.68 | 3.457 | -14.42 |
| 17 | `COCCCn1ccc(NC(=O)NCc2cccc(N(C)C)c2)n1` | -1.135 | 4.468 | 0.5725 | -0.4464 | -35.95 |
| 18 | `COc1ccc(CSc2nnc(N)n2C2CC2)cc1Cl` | 1.613 | 1.915 | -8.141 | 3.422 | -56.46 |
| 19 | `CCS(=O)(=O)N1CCO[C@H]2[C@H](OCCCn3cccn3)CC[C@@H]21` | -2.833 | - | -8.297 | 5.203 | - |
| 20 | `O=C(N[C@@H]1CN(c2ncccn2)[C@@H]2CCCO[C@@H]21)c1cscn1` | -7.091 | - | 5.036 | 0 | -20.6 |
| 21 | `Cn1cc(CN2CCC3(CCCN(C(=O)c4cscn4)C3)C2)cn1` (centres unmarked) | -0.3003 | 1.997 | -14.88 | -2.836 | -8.884 |
| 22 | `Cc1noc(C)c1CCC(=O)NC(C)c1nnc2n1CCCCC2` (centres unmarked) | 3.606 | 3.072 | 2.597 | 2.575 | - |
| 23 | `CCSc1ncc(CN2CCN(c3nc(C)cnc3C)CC2)cn1` | -1.481 | -4.606 | 1.254 | 5.882 | - |
| 24 | `CCN1CCN(C(=O)CCC2CCN(C(C)CCC(=O)OC)CC2)CC1` (centres unmarked) | -5.915 | -4.781 | -11.26 | -1.129 | -0.9175 |
| 25 | `COc1ccccc1CN1CCN(CCN2CCOC2=O)CC1` | 3.749 | 20.66 | 4.948 | -1.952 | -14.82 |
| 26 | `Cc1nc(O)cc(C2CCCN(Cc3c(Cl)cncc3Cl)C2)n1` (centres unmarked) | -2.196 | -4.956 | -12.54 | -3.398 | -32.25 |
| 27 | `Cc1cc(NCc2ccc(C#N)cc2)n2nc(C)cc2n1` | 0 | -34.18 | -15.23 | 5.875 | -39.48 |
| 28 | `O=C(c1cc(-c2ccccc2)nc2onc(C3CC3)c12)N1CC[C@H](O)C1` | -6.028 | -58.82 | 6.202 | 9.489 | 6.441 |
| 29 | `COC(=O)c1ccc(NC(=O)CCc2ccco2)cc1` | 0 | -18.82 | -7.005 | 2.39 | 4.324 |
| 30 | `Cn1c(=O)[nH]c(=O)n2c(CC(=O)Nc3c(Cl)cccc3Cl)cnc12` | -2.334 | -9.723 | 1.29 | 1.316 | -4.46 |
| 31 | `Cl.Cl.O=C(NCc1cncc2c1CCN(CC1CCOC1)C2)c1ccco1` (centres unmarked) | - | -7.908 | - | - | - |
| 32 | `CCn1c(C)cc(C(=O)N2C[C@@H](C(=O)O)[C@H](c3ccccc3C)C2)c1C` | 1.502 | 6.361 | -7.119 | 0.3699 | - |
| 33 | `Cc1cc(NC(=O)CN2CCn3c(nnc3C(C)C)C2)n(C)n1` | -2.197 | -4.026 | 6.979 | 3.929 | -24.95 |
| 34 | `Cc1nn(C)c(C)c1CCC(=O)N(C)Cc1ccc2nsnc2c1` | -4.125 | 6.974 | -9.132 | -10.08 | 5.15 |
| 35 | `Cn1ncc2c(NC3CCSC3)nc(-c3ccncc3)nc21` (centres unmarked) | -2.993 | 7.285 | 1.459 | 4.906 | -9.509 |
| 36 | `Cc1nn(C)c2nc(N(Cc3ccccn3)CC3CCCO3)sc12` (centres unmarked) | 1.37 | -5.627 | -8.566 | 4.327 | -11.43 |
| 37 | `CC(C)N1CCOC(c2cc(CCO)[nH]n2)C1` (centres unmarked) | -4.838 | -7.387 | -9.119 | 3.154 | -0.2575 |
| 38 | `N#Cc1cccc(CN2CC[C@@H]3[C@@H]2CC(=O)N3Cc2ccncc2)c1` | -2.502 | - | 1.592 | 2 | -3.178 |
| 39 | `O=C(Nc1ccc(OC2CCCC2)cc1)C1CCCN1c1nccs1` (centres unmarked) | 22.19 | -13.07 | -4.339 | 3.684 | -49.1 |
| 40 | `NC(=O)COc1ccc(CN2CC[C@@]3(O)CCCC[C@H]3C2)cc1Cl` | 5.737 | - | -8.986 | 1.946 | -1.231 |
| 41 | `O=C(c1nc2c(s1)CCCN2CC1CC1)N1CCOCC1` | -0.9149 | 0.9564 | 5.298 | -1.434 | 9.984 |
| 42 | `O=C(O)C(F)(F)F.[H][C@]12CCN(c3ncc(C)cn3)[C@@]1([H])CCC(COCC(=O)N(C)C)O2` (some centres unmarked) | - | 11.17 | - | - | - |
| 43 | `O=C(O)C(F)(F)F.O=C(O)C(F)(F)F.[H][C@@]12COC[C@]1([H])[C@H](OCc1ccccn1)CN2Cc1ccc(F)cc1` | - | -108.3 | - | - | - |
| 44 | `O=C(O)C(F)(F)F.[H][C@@]12COC[C@]1(COCC1CC1)CN(Cc1cnn(C)c1)C2` | - | -9.448 | - | - | - |

Some entries from above, unchanged:

COc1cc(N2C[C@@H](C)[C@](O)(C3CC3)C2)ncn1 gave MtTrpRS: 0.7874%; Toxoplasma: 10.99%; ClpP1P2: -6.451%; CoaBC: 3.836%; Pks13 thioesterase: -0.7257%.
CCN1CCN(C(=O)CCC2CCN(C(C)CCC(=O)OC)CC2)CC1 (centres unmarked) gave MtTrpRS: -5.915%; Toxoplasma: -4.781%; ClpP1P2: -11.26%; CoaBC: -1.129%; Pks13 thioesterase: -0.9175%.
O=C(O)C(F)(F)F.[H][C@]12CCN(c3ncc(C)cn3)[C@@]1([H])CCC(COCC(=O)N(C)C)O2 (some centres unmarked) gave Toxoplasma: 11.17%.